This is a selection; strong and weak results do not stand in their true shares.

Amino acid sequences for entries named in this document (tags omitted). A change or cut given only in a name is not applied to a line headed by its entry.
UniProt Q9H3N1: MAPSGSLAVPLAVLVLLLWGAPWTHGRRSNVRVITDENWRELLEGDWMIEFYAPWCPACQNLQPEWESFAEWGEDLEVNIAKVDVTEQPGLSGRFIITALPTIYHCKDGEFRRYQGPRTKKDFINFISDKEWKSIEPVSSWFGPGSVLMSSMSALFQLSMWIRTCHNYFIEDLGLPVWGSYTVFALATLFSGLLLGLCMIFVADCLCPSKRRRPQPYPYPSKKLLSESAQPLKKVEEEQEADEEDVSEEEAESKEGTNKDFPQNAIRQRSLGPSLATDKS
UniProt Q9HD67, whole entry: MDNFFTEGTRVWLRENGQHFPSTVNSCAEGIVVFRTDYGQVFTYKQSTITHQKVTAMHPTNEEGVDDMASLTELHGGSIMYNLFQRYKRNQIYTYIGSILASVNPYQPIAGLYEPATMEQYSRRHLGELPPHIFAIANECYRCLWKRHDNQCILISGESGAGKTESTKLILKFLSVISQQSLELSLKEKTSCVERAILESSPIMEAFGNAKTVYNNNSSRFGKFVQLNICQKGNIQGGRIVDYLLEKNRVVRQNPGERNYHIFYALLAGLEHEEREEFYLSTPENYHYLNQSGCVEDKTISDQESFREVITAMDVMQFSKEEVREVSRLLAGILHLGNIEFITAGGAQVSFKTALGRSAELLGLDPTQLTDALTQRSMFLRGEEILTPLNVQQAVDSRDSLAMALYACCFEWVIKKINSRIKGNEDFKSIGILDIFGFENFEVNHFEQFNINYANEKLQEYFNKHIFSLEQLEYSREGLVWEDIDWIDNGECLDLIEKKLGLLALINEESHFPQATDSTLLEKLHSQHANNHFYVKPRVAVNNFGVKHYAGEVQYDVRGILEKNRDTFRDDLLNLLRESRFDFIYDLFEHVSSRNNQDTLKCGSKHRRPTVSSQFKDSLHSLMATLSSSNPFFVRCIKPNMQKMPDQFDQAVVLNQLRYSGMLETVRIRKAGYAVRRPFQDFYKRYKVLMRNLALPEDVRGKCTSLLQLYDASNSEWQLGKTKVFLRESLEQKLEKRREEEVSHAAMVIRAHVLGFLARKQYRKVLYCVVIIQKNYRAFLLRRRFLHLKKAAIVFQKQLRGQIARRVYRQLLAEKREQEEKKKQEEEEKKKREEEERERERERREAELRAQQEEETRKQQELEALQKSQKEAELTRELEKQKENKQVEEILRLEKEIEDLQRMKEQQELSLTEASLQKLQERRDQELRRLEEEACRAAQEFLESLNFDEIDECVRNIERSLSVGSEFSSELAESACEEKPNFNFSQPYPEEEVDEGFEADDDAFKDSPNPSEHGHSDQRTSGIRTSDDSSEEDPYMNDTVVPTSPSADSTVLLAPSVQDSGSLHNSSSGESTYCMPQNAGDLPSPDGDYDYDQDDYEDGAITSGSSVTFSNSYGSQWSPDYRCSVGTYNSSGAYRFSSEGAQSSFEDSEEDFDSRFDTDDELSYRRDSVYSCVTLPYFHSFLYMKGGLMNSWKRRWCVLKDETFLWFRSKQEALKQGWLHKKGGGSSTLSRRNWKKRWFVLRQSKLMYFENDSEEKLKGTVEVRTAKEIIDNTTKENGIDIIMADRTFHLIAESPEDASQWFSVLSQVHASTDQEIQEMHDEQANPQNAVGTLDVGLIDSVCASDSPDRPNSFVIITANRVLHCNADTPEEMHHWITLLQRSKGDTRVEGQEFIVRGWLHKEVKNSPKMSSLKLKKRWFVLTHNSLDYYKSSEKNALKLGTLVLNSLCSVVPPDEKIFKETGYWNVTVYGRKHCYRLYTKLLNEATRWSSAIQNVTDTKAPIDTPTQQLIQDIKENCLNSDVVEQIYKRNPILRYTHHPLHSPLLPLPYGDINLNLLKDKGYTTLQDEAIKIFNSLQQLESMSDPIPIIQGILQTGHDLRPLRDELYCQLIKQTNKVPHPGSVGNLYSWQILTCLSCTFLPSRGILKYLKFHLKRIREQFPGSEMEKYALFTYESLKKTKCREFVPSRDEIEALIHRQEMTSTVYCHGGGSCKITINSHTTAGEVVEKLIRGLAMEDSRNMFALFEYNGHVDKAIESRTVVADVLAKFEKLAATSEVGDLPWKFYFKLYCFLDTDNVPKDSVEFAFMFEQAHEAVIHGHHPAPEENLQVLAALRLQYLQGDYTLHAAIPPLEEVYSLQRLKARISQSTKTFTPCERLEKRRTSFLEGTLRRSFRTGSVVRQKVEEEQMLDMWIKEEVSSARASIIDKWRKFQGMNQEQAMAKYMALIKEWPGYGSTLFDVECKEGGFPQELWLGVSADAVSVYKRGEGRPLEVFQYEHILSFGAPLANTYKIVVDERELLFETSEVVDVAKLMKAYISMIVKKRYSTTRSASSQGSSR
UniProt Q9HAV4: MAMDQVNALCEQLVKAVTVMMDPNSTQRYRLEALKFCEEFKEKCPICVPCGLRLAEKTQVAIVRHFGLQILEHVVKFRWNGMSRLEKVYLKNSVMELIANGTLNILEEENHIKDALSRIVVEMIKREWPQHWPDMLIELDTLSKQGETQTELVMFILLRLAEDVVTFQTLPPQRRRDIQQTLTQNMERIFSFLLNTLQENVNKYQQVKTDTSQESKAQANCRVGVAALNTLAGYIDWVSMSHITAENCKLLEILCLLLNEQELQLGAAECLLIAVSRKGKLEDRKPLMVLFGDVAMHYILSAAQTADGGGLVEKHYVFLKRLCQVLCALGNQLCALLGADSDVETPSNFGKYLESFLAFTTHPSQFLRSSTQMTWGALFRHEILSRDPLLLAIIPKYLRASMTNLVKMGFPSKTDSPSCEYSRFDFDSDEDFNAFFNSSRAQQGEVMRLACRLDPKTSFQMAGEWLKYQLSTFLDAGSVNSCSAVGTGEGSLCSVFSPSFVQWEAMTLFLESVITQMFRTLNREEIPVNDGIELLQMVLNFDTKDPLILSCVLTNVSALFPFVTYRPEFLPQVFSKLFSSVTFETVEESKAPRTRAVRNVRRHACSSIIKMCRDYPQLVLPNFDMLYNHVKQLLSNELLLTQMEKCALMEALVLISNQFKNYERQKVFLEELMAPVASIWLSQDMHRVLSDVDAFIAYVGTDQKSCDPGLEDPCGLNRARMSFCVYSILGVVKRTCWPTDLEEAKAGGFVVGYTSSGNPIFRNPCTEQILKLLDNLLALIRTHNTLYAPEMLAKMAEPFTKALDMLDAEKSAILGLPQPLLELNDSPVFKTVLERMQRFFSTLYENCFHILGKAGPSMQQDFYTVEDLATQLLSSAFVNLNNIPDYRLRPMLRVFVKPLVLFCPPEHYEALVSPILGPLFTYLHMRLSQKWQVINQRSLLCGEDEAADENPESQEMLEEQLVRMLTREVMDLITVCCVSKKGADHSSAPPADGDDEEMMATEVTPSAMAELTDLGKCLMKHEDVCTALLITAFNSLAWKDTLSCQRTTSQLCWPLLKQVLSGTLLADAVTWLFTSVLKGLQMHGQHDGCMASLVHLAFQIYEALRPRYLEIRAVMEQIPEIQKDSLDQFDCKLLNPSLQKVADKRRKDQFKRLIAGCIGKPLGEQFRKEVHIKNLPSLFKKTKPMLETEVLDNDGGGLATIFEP
UniProt Q9H977: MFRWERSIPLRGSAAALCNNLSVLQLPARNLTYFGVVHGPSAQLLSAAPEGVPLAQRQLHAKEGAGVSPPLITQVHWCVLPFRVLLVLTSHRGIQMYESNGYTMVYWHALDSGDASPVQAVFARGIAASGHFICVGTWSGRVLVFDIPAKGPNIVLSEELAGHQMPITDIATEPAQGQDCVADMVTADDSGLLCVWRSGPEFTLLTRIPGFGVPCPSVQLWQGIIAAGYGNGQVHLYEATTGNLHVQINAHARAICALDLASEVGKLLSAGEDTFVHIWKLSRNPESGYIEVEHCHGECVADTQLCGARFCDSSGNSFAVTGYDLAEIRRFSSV
UniProt Q9HCK8: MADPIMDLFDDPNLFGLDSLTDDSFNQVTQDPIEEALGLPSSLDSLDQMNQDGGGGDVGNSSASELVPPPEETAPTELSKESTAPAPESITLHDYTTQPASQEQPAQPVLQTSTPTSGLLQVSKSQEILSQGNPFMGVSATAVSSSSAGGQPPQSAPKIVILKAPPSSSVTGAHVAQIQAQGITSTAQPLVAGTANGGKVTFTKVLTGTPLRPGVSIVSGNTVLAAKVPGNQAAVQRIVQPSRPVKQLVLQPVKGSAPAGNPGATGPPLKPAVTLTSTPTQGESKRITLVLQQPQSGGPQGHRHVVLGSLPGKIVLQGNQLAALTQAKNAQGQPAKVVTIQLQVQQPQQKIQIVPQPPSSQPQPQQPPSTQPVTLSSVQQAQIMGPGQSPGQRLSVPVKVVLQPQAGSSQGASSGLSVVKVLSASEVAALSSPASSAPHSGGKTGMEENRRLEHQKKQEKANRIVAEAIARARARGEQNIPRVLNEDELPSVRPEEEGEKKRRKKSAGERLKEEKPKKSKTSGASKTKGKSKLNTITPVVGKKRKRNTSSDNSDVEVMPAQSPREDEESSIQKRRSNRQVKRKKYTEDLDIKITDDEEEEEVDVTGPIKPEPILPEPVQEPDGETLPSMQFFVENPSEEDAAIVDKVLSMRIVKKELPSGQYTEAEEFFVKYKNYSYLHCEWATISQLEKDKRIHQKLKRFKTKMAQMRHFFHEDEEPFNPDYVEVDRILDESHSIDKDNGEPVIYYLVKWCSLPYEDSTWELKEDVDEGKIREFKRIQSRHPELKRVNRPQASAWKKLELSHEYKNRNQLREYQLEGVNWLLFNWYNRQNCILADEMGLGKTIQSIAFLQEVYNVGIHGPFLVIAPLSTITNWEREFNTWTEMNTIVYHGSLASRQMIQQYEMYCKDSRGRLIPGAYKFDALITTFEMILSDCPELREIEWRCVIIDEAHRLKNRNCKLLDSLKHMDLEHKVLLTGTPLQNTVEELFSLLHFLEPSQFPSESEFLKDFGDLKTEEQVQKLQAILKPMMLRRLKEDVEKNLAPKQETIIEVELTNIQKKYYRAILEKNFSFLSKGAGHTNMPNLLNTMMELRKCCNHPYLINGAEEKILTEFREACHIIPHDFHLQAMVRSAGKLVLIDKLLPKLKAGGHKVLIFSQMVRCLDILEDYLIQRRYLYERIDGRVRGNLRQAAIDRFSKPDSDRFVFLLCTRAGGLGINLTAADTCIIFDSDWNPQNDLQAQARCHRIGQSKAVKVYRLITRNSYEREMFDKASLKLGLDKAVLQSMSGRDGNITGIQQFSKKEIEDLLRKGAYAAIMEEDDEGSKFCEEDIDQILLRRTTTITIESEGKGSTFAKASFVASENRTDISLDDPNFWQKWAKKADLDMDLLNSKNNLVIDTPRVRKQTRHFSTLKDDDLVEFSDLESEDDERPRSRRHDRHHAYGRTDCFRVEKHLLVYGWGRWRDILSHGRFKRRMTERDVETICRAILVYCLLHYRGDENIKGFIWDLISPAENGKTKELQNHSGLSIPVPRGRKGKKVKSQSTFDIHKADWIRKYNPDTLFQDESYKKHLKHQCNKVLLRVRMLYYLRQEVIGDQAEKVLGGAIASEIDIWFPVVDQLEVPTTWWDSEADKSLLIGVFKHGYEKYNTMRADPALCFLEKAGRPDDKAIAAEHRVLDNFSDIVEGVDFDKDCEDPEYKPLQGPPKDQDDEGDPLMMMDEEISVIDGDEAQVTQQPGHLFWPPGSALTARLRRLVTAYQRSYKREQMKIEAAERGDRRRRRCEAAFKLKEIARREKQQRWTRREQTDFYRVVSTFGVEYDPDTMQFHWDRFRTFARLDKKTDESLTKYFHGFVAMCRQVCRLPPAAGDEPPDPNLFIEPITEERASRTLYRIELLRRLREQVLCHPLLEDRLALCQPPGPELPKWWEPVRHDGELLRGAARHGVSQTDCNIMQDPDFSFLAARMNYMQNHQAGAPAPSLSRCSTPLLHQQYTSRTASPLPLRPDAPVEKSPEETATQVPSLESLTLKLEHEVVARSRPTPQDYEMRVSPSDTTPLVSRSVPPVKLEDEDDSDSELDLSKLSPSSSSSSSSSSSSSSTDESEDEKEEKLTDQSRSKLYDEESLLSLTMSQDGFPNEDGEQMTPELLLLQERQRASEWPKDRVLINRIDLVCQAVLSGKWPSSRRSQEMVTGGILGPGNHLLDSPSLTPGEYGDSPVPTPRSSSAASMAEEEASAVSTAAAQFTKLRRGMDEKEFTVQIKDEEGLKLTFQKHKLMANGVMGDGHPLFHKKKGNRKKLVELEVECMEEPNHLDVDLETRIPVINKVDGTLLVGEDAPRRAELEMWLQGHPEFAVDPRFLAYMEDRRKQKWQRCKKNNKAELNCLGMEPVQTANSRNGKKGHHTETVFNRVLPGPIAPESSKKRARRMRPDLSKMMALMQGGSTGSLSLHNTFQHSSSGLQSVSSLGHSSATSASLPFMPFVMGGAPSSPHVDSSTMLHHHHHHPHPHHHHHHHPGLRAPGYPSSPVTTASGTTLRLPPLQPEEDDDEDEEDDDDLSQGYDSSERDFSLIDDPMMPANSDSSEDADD

Compound in this test: COC(=O)C#Cc1ccccc1 [methyl 3-phenylpropiolate]
The test is described as follows: log2 ratio of iodoacetamide-alkyne labeling of the cysteine site, DMSO over compound (competition); higher = stronger covalent engagement of the cysteine by the compound, active = 1 or more. The note with it: 500 µM; treatment time 1 h; system: HEK293T cell lysate. The procedure, abridged: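 HEK293T lysate (2 mg/mL) was incubated with electrophile (500 µM) or vehicle for 1 h at ambient temperature and then with iodoacetamide alkyne for 1 h. Labelled proteins were clicked to sCIP-TMT reagents, pooled, digested, enriched on streptavidin and measured by Orbitrap Eclipse LC-MS/MS with FAIMS, with FragPipe quantification. The per-cysteine log2 competition ratio is mean control-channel reporter intensity over mean compound-channel reporter intensity. Across three replicates with duplicate channels, cysteines quantified in only one replicate were excluded.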
In the case of UniProt Q9HC36_C290, the “log2 ratio of iodoacetamide-alkyne labeling” value (shortened to “log2 ratio”) is inactive: 0.36. UniProt Q9H3N1_C106: the “log2 ratio” value is inactive: -0.513. The result for INCENP C163 (UniProt Q9NQS7) reads inactive: 0.179; that for EIF2B3 C334 (UniProt Q9NR50), inactive: 0.456; that for NIT2 C153 (UniProt Q9NQR4), inactive: 0.000181.

Turning to MYO10 C1517 (UniProt Q9HD67), the “log2 ratio” value is inactive: 0.288.

Take XPO5 C1131 (UniProt Q9HAV4): the “log2 ratio” value was inactive: 0.415.

Regarding DDX21 C161 (UniProt Q9NR30), the “log2 ratio” value was inactive: 0.101. Then ZNF703 C96 (UniProt Q9H7S9), with inactive: 0.47; and EXOSC4 C97 (UniProt Q9NPD3), with inactive: 0.533. The result for WDR54 C18 (UniProt Q9H977) reads inactive: 0.253. Then UniProt Q9H871_C4, with inactive: 0.161.

For the target NOL11 C368 (UniProt Q9H8H0), the “log2 ratio” value was inactive: 0.498. Consider FAM83D C19 (UniProt Q9H4H8), for which the “log2 ratio” value was active: 1.11. Then CLSPN C397 (UniProt Q9HAW4), with inactive: 0.187; and CHD8 C1947 (UniProt Q9HCK8), with inactive: 0.761.

These data come from the supplement of paper PMC11006884.
